The target in assay [1] is CD44 (UniProt P16070). Briefly: co-immunoprecipitation, COS-1 cells co-expressing CD44 and the mutant.
Assay [2] addresses CD44 (UniProt P16070). The assay is described as follows: co-immunoprecipitation, anti-CD44 antibody for IP and anti-MMP-9 antibody for IB (FIG. 5A).
For assay [3], the target named is CD44 (UniProt P16070). Briefly: co-immunoprecipitation, MMP-9 transfected COS-1 cells.
The target of assay [4] is Matrix Metalloproteinase-9 (MMP-9), wild type (Homo sapiens (Human)) (UniProt P14780). The assay is described as follows: co-immunoprecipitation (FIG. 3B).
The target is the same in assay [5]. Briefly: co-immunoprecipitation, transfected COS-1 cells.
The target is the same in assay [6]. Briefly: reciprocal co-immunoprecipitation (FIG. 7E).

Chains of the proteins cited; added tags and fusions are not shown. Lines headed by an entry give the natural chain unless they say otherwise; changes in a name come on top. A line that says so, or that is headed by a name, gives the form on record, which may keep a tag or linker. Residues count along the entry.
CD44 (P16070, form named): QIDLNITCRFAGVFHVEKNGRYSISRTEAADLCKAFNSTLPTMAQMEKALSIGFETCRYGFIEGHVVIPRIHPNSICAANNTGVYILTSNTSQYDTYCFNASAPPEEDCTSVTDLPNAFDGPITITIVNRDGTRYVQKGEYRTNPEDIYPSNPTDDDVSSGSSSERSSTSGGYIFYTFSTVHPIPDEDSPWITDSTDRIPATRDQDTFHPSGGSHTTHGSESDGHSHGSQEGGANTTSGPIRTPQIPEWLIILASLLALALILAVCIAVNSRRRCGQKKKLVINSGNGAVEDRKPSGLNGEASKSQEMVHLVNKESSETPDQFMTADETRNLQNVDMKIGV
UniProt P14780: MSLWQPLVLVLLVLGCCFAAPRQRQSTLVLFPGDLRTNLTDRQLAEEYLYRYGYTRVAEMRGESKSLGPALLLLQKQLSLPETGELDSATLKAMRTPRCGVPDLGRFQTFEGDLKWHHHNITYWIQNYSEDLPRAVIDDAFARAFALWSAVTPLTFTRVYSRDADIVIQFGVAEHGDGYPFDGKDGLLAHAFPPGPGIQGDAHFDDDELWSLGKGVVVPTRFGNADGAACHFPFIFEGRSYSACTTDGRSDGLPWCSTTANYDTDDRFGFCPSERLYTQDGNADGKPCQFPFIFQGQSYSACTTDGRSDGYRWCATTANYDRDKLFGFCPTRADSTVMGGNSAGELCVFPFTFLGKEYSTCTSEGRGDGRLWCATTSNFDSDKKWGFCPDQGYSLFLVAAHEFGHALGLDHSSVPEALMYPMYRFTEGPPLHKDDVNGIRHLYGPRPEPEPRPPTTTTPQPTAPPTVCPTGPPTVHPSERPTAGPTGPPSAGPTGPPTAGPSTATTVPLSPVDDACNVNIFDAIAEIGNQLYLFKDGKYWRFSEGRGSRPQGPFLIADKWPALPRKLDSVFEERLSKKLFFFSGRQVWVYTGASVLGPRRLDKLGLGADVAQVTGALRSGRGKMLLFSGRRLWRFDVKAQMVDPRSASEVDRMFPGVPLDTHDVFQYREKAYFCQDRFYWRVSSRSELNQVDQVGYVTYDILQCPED
UniProt P01033, residues 24-207: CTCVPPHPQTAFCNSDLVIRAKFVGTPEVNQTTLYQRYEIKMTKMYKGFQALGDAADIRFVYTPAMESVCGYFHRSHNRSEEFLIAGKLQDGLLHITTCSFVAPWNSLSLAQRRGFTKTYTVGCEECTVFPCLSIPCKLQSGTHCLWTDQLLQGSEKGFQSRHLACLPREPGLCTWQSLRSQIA

This note sets out measurements from US20130012451A1, “COMPOSITIONS AND METHODS FOR INHIBITING MMP-9-MEDIATED CELL MIGRATION” (The Research Foundation of State University of New York, priority 2009, published 2013).

These are yes or no findings as the source states them, for the method shown. Binding seen in cells or lysates may run through a third protein. Some results given as binding are weak or reduced against the parent protein; the word gives no strength.

For “MMP-9/IVS4 chimera (MMP-9 with the outermost β-strand of blade IV of the PEX domain, NQVDQVGY, replaced by MMP-2 KSVKFGS) (from UniProt P14780 20-707) (enzyme)”, the binding result in assay [1] was “binds”.

With “Matrix Metalloproteinase-9 (MMP-9), wild type (from UniProt P14780 20-707) (enzyme)”, the binding entry in assay [2] and in assay [3] was “binds” each time.

As to TIMP-1 (from UniProt P01033 24-207), the binding result in assay [4], in assay [5] and in assay [6] was “binds” in each case.
